Consider one sequence from article PMC12402098, “YTHDF3 recognizes DNA N6-methyladenine and recruits ALKBH1 for 6mA removal from genomic DNA” (The EMBO Journal, 2025).

The series concerns the target T1, YTHDF3 MTbind L455M,L461V,V482A,A487T,Y488C,E502D,K504R (UniProt Q7Z739).
T1 sequence (looked up, limits assumed): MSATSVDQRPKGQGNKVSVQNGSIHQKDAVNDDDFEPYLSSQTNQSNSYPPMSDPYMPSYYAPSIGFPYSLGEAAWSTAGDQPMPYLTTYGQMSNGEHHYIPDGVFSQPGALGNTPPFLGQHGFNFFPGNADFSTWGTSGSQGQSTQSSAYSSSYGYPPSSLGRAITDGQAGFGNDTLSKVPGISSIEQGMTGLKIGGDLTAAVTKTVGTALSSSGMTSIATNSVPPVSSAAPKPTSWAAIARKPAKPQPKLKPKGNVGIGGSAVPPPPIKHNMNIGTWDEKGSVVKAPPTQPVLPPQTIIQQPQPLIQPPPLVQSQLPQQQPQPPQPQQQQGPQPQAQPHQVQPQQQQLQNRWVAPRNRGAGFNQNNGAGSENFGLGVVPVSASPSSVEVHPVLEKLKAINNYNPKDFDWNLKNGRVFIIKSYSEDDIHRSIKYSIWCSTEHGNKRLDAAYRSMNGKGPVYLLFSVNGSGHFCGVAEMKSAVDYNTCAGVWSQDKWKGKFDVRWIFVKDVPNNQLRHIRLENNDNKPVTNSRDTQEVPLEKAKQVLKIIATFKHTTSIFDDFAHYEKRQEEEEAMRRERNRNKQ
Put plainly: EMSA, pull-down. The following applies: N6-methyl-dA at A10 of strand 1; EMSA: LightShift kit, 30 C 20 min, then 2% glutaraldehyde on ice 15 min, 5% native gel; recombinant protein; protein details: His; label: 3' biotin strand 1. (Mobility shift assays separate free from complexed probe on a gel.)

Construct, isoform or probe ends are uncertain for at least one entry. Where a protein sequence is shown, tags need not be part of it.

As to “CTATGTTTCATGTACCGCCA (double strand) [6mA-ds-oligo]”, the binding result is reported as “binds”.
